Assay results: publication PMC10163288
The other results are listed elsewhere or left out.

B1: il10ra_site1_normal_mot_HHH_b2_03425_000000200_0001_22_39_H_._HHH_b1_08292_0001_0000100014_0000001_0 (protein)
chain: SSSSSSEEEERVERLLERLEEITDAEEFYEVVREIIELISELGNEELLRLLMRILRRFFSSSSSS
B2: il10ra_site1_sap_14_mot_HHH_b2_00099_af2_000000010_0001_1_19_H_._ems_3hC_453_0002_0001_0000400024_0000002_0_0001 (protein)
chain: SSSSSDEEEEVEKLLEEAEKIEDHEERLRVLLEALRLAFRLQNPELLQKVWEVFRRLAGSSSSSS
B3: il10ra_site1_normal_mot_HHH_b2_07569_000000265_0001_38_56_H_._HHH_b1_06669_0001_0000100001_0000001_0 (protein)
chain: SSSSELEKEIEELLEELKRLVEEGDVREASELALEIVQLIFELGDEELVQEVWELAKLAFERSSS
B4: il10ra_site1_sap_22_mot_HHH_b1_07806_000000011_0001_1_18_H_._HHH_b2_05025_af2_0001_0000400012_0000001_0_0001_af2pred_0001 (protein)
chain: SSSSDMEEKLKLALKFIEFLIEQGDEEAARRLIRAAEDIARRLGNEEILERLEELLERLNSSSSS
B5: il10ra_site1_sap_16_mot_HHH_b2_07873_af2_000000172_0001_1_19_H_._HHH_b1_08172_af2_0001_0000100006_0000001_1_0001 (protein)
chain: SSSSNEVLRIAEEAVELLHELLKRGDEEEAEEVLREARELLEELGNQLAVESLEYMFRSDSSSSS
B6: il10ra_site1_sap_23_mot_HHH_b2_06571_000000054_0001_42_56_H_._HHH_b1_02406_0001_0000500066_0000002_0_0001 (protein)
chain: SSSSDEEREAFELMVEAYLLANQGDPEEAREVLEEAEEVAERGNDRALVLAIEINLERLESSSSS
B7: il10ra_site1_sap_25_mot_HHH_b2_02315_000000136_0001_19_35_H_._HHH_b1_00431_0001_0000100007_0000002_0_0001 (protein)
chain: SSSSSDEEEEEVERLLEEAKHIEDRERAIELLLRASRLAWELGNKELARAVDQLAIKLFQSSSSS
B8: il10ra_site1_sap_16_mot_HHH_b2_02736_000000092_0001_22_38_H_._HHH_b2_04483_af2_0001_0000100003_0000002_0_0001_af2pred_0001 (protein)
chain: SSSSSEEEEVLKLVAEALALAQRLGDHETAEELFKLLAEAFATNDPKLFEEAEELAREILGSSSS
B9: il10ra_site1_normal_mot_8756ee2cf497b5429c717dfc0c0bcfd6_0001_000000186_0001_1_13_H_._HHH_b1_06748_af2_0001_0000300014_0000001_0 (protein)
chain: SSSSDELSEEVIELLREAAELHRNGNPEEARKVLEEAEELAEENNNDVLLAQIEYLQRLLDSSSS
B10: il10ra_site1_normal_mot_HHH_b1_08446_000000041_0001_1_19_H_._HHH_b2_00614_0001_0000100009_0000001_1 (protein)
chain: SSSSSDAEEEVEELLEEAKRVDDPDERYELLKEAIELASEANDQELFRLIIEVLRELLHSSSSSS

target: il10ra, Q13651; experiment: yeast display titration

Apparent Kd, inactive:
B1 no binding seen, B2 > 38.5 nM, B3 no binding seen, B4 no binding seen, B5 no binding seen, B6 no binding seen, B7 no binding seen, B8 no binding seen, B9 no binding seen, B10 no binding seen
